## Assay results

From PubChem BioAssay record AID912 (NCATS, 2007).

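A cell-based FRET test of anthrax lethal toxin entry, tracked through the 460 nm emission signal; the cell line is not named here. Each compound was tested as a concentration series from about 0.0005 to 40 µM. The number is the fitted AC50 of the 460 nm signal alone; lower values mean a more potent effect. A falling signal goes with compounds filed as inhibitors or cytotoxic, a rising one with activators or fluorescent compounds (inferred from the filed classes).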

Values are in µM. Common to all entries: measured here: 460 nm channel. Part of the compounds only, not a random draw; the main read-out is not listed here. Potencies fitted to partial, single-point or poorly fitting curves are rough. The first word of each remark tells which way the curve ran; it can be opposite to the aim of the assay.

| # | compound | AC50 (µM) | curve |
|---|---|---|---|
| 1 | `CCOC(=O)Cn1nnnc1CN(Cc1ccc(OC)cc1)Cc1cc2cc(CC)ccc2[nH]c1=O` | 5.012 | rising, single point |
| 2 | `Cc1cccc(CNc2nc(-c3cccnc3)nc3ccccc23)c1` | 19.95 | falling, single point |
| 3 | `Cc1cc(C)c(NC(=O)CCCN2CCN(C)CC2)c(C)c1` | 12.59 | falling, partial curve, poor fit |
| 4 | `CC1CCC(NC(=O)CN2C(=O)C3CCCN3c3ncc(Cl)cc32)CC1` (stereo unspecified) | 7.943 | rising, partial curve, poor fit |
| 5 | `COC(=O)[C@@]1(Cc2ccc(F)cc2)[C@H]2c3cc(C(=O)N4CCCC4)n(CCO)c3C[C@H]2CN1C(=O)c1ccccc1` | 12.59 | rising, single point |
| 6 | `Cc1cc(C2=CC(C)(c3cc(C)oc3C)Nc3nc(C(F)(F)F)nn32)c(C)o1` (stereo unspecified) | 31.62 | falling, single point |
| 7 | `CCc1cc(C(=O)COc2ccccc2F)c(O)cc1O` | 31.62 | falling, single point |
| 8 | `COc1ccccc1CNc1ncnc2ccc(-c3ccccc3OC)cc12` | 31.62 | falling, single point |
| 9 | `OC(COc1ccc2ccccc2c1)CN1CCN(c2ccc(F)cc2)CC1` (stereo unspecified) | 19.95 | falling, partial curve, poor fit |
| 10 | `COCCOC(=O)c1[nH]c2c(c1C)C(=O)CC(c1ccc(F)cc1)C2` (stereo unspecified) | 12.59 | falling, partial curve |
| 11 | `CCN(C(=O)c1cnc(N2CCN(c3ncccn3)CC2)c2ccccc12)c1cccc(Cl)c1` | 31.62 | falling, single point |
| 12 | `COc1ccccc1CCn1c(=O)c(-c2cn(C)c3ccccc23)nc2cncnc21` | 2.512 | rising, full curve |
| 13 | `COc1ccccc1N1CCN(Cc2nc(N)nc(Nc3ccc(C)cc3)n2)CC1` | 0.003981 | rising, full curve, poor fit |
| 14 | `Cc1ccc(-n2nc3ccc(N)cc3n2)cc1` | 7.943 | rising, partial curve |
| 15 | `O=C(Nc1ccc2ccccc2c1)N1CCN(c2ncccc2C(F)(F)F)CC1` | 31.62 | falling, partial curve |
| 16 | `Cc1ccc(S(=O)(=O)NCCOc2nc(N(C)C)nc(N3CCOCC3)n2)cc1` | 5.012 | falling, full curve, poor fit |
| 17 | `O=C(OCC(F)(F)C(F)F)c1ccccc1C(=O)Oc1ccc(F)cc1F` | 25.12 | falling, partial curve |
| 18 | `COCCN1C(=O)C(O)=C(C(=O)c2ccco2)C1c1cccc(Oc2ccccc2)c1` (stereo unspecified) | 19.95 | rising, single point |
| 19 | `CCCc1nc2ccccc2c(C(=O)OC2CCOC2=O)c1CC` (stereo unspecified) | 5.012 | rising, single point |
| 20 | `COc1ccccc1OCCn1c(C(C)O)nc2ccccc21` (stereo unspecified) | 25.12 | rising, single point |
| 21 | `CCNc1ncc2nc(-c3cn(C)c4ccccc34)c(=O)n(-c3ccccc3)c2n1` | 15.85 | rising, partial curve |
| 22 | `COc1ccc(Oc2ncc3nc(-c4cccc(C#N)c4)c(=O)n(Cc4cccc(OC)c4)c3n2)cc1` | 1 | falling, full curve |
| 23 | `O=C(Nc1ccc2c(c1)nc1n2CCOC1)c1ccccc1` | 0.0631 | falling, partial curve, poor fit |
| 24 | `O=c1cc(Cn2ccnc2)c2cc3c(cc2o1)CCC3` | 0.631 | falling, full curve |
| 25 | `Nc1nc(N)c2nc(CNc3ccc(C(=O)N[C@H](CCC(=O)O)C(=O)O)cc3)cnc2n1` | 12.59 | rising, partial curve, poor fit |
| 26 | `CCOC(=O)c1c(C)n(C)c2ccc(O)c(CN3CCC(C)CC3)c12` | 7.943 | falling, partial curve |
| 27 | `CCC(=O)Nc1ccc(-c2nn3c(C)nnc3s2)cc1C` | 0.003981 | falling, full curve |
| 28 | `NC(=O)c1ccc(-c2nc(-c3ccc4c(c3)OCO4)c(-c3ccccn3)[nH]2)cc1` | 12.59 | falling, partial curve |
| 29 | `Cc1noc(C)c1C(=O)N1CCC2(CCN(Cc3ccccc3)CC2)CC1` | 10 | rising, partial curve |
| 30 | `COC(=O)C1C(=O)C2=C(CC1C)NC(C)=C(C(=O)OC1CCCC1)C2c1ccc(N(C)C)cc1` (stereo unspecified) | 7.943 | rising, partial curve, poor fit |
| 31 | `CN(C)c1ncc2nc(-c3ccc(Cl)cc3)c(=O)n(C[C@H]3CCCO3)c2n1` | 10 | rising, partial curve |
| 32 | `O=C1c2ccccc2C(Nc2ccc3nc(-c4cccnc4)[nH]c3c2)N1Cc1ccco1` (stereo unspecified) | 6.31 | rising, partial curve |
| 33 | `CCOc1cccc(C2C(C#N)=C(N)Oc3cc(C)n(Cc4ccccn4)c(=O)c32)c1OCC` (stereo unspecified) | 5.012 | rising, single point |
| 34 | `CC(C)=CCC12CN3CCN(CC(C3)C1=O)C2` | 3.981 | rising, partial curve |
| 35 | `CCn1cc(C(=O)NC2CCc3ccccc32)c(=O)c2ccc(C)nc21` (stereo unspecified) | 5.012 | falling, single point |
| 36 | `O=C(CC(C(=O)N1CCc2ccccc21)n1ccnc1)NCC1CCCO1` (stereo unspecified) | 0.03981 | falling, full curve, poor fit |
| 37 | `O=C(c1ccc(F)cc1)c1cn[nH]c1-c1ccccc1O` | 0.3981 | falling, full curve |
| 38 | `C=CCCN1C[C@@H]2C[C@H](C1)c1cccc(=O)n1C2` | 0.001259 | rising, full curve, poor fit |
| 39 | `COc1ccccc1CNc1ncnc2ccc(-c3cccc(NS(C)(=O)=O)c3)cc12` | 31.62 | falling, single point |
| 40 | `CC(C)C[C@@H](CC(=O)N[C@H](CC(=O)N[C@@H]1CCNC[C@H]1C(=O)N[C@H](CC(=O)N[C@@H](CCC(=O)O)CC(=O)O)Cc1ccccc1)C(C)C)NC(=O)[C@@H]1CNCC[C@H]1N` | 1.995 | rising, partial curve, poor fit |
| 41 | `O=C(CSc1ccc2nnc(-c3ccccc3)n2n1)N1CCN(c2ccccc2)CC1` | 0.1 | falling, full curve, poor fit |
| 42 | `COc1ccc(CN2CCN(c3cccc(C)c3C)CC2)cc1OC` | 31.62 | falling, single point |